Measured values from PubChem BioAssay AID504834 (National Center for Advancing Translational Sciences (NCATS), 2011).
Out of some 320,000 compounds screened, about 22,000 (6.9%) were called active. This list was built around the results that the source calls inconclusive (neither active nor inactive); the mix of calls is not that of the screen. Calls come from the whole dose curve; as a rule, active = well fitted inhibition curve with a large enough effect; inconclusive = small, poorly fitted or top-dose-only effect, or another doubt; inactive = no such curve, though single readings can be large or run the other way. Potencies of inconclusive entries are doubtful fits and often do not repeat.

experiment: Primary qHTS for delayed death inhibitors of the malarial parasite plastid, 96 hour incubation; settings: P. falciparum luciferase reporter growth; series mostly up to 28.7 µM; activity change, negative = inhibition: at the top concentration
Procedure, shortened: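 P. falciparum expressing integrated firefly luciferase grown in erythrocytes (2% hematocrit, 0.05% parasitemia final) with compounds for 96 hours at 37 C, 5% CO2. Growth inhibition read as loss of luminescence after adding luciferase detection reagent.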
% is set by controls: 0 for no effect and ±100 for the full control effect; potency is the fitted concentration of half-maximal effect.

Compound | activity change, negative = inhibition | Potency
Cn1cccc1/C=N/N1CCN(Cc2cccc3ccccc23)CC1 | inactive: 1.84% | –
O=C(O)c1cccc(S(=O)(=O)N2CCN(c3ccccn3)CC2)c1 | inactive: 277% | –
COc1cc(C(=O)Oc2cccc(C=O)c2)cc(OC)c1OC | – | inconclusive: 13.1 µM [inhibitor, single point]
Cc1c(NC(=O)N2CCCCCC2)c(=O)n(-c2ccccc2)n1C | – | inconclusive: 0.415 µM [inhibitor, full curve, poor fit]
Cc1ncc(CN2CCC(C(=O)Nc3cccc(-c4cscn4)c3)CC2)cn1 | – | inconclusive: 18.5 µM [inhibitor, single point]
CCN(Cc1cc(=O)n2ccsc2n1)c1cccc2ccccc12 | – | inconclusive: 4.15 µM [inhibitor, partial curve]
COc1cccc(C2CC(c3cccc(OC)c3)n3nc(N)nc3N2)c1 (stereo not given) | – | active: 11.7 µM
Brc1ccccc1-c1cnco1 | – | inconclusive: 18.5 µM [inhibitor, single point]
COc1ccc2c(c1)C(=O)N(c1ccccc1)C(=O)C2 | – | inconclusive: 0.0928 µM [inhibitor, full curve, poor fit]
CCCS(=O)(=O)N1CCCC(C(=O)Oc2ccc(OC)cc2)C1 (stereo not given) | – | inconclusive: 18.5 µM [inhibitor, single point]
O=C(CN1C(=O)NC2(CCCC2)C1=O)Nc1nc(-c2ccc(F)c(F)c2)cs1 | – | inconclusive: 18.5 µM [inhibitor, single point]
c1ccc(-c2nn3c(C4CCCCC4)nnc3s2)nc1 | inactive: 53.1% | –
COc1ccc(NC(=O)c2cc([N+](=O)[O-])ccc2N2CCCC2)cc1 | – | inconclusive: 11.7 µM [inhibitor, partial curve, poor fit]
CCn1c(=O)c2ccccc2n2c(SCC(=O)NCc3cccs3)nnc12 | – | inconclusive: 4.15 µM [inhibitor, single point]
COc1ccc(NS(=O)(=O)c2ccc(OC)c(NC(=O)CNC(=O)c3ccc(OC)cc3)c2)cc1 | – | inconclusive: 0.465 µM [inhibitor, full curve, poor fit]
CC[N+]1(C)CCC(=C2c3ccccc3CC(=O)c3sccc32)CC1 (stereo not given) | – | active: 11.7 µM
CCC(CC)C(=O)Nc1ccc(S(=O)(=O)Nc2nccs2)cc1 | – | inconclusive: 9.28 µM [inhibitor, partial curve, poor fit]
O=C(OCn1nnc2ccccc2c1=O)c1cc(-c2ccccc2)nc2ccccc12 | inactive: 37% | –
Cc1nc2ccccc2c(=O)n1CCc1ccccc1 | – | inconclusive: 2.94 µM [inhibitor, partial curve, poor fit]
CC1CCN(C2=C(NS(=O)(=O)c3ccc(Cl)cc3)C(=O)c3ccccc3C2=O)CC1 | – | active: 1.47 µM
CCOC(=O)Cc1cc(=O)n(-c2nc3ccccc3s2)[nH]1 | – | inconclusive: 0.0928 µM [inhibitor, full curve, poor fit]
COc1cc(C(=O)Nc2ccc3c(c2)N(C(=O)CN2CCN(C)CC2)c2ccccc2CC3)cc(OC)c1OC | – | inconclusive: 9.28 µM [inhibitor, partial curve, poor fit]
CCn1c(=O)c2cc(C(=O)Nc3cc(C)on3)sc2c2ccccc21 | – | inconclusive: 20.8 µM [inhibitor, single point]

Compound | activity change, negative = inhibition | Potency
Cc1ccc(S(=O)(=O)/N=C(/Nc2cccc3ccccc23)c2ccc(F)cc2)cc1 | inactive: 17.5% | –
COc1ccc(C(C(=O)NC2CCCCC2)N(Cc2ccco2)C(=O)c2ccccn2)c(OC)c1 (stereo not given) | inactive: 163% | –
CCOC(=O)c1[nH]c2ccc(OC)cc2c1NC(=O)CCN1CCCC(C)C1 (stereo not given) | – | inconclusive: 4.15 µM [inhibitor, partial curve, poor fit]
CCCS(=O)(=O)C/C(N)=N/OC(=O)c1ccc(Cl)cc1 | inactive: 48.6% | –
COc1ccc(Cl)cc1S(=O)(=O)N(C)CC(=O)NCCCn1ccnc1 | inactive: 34.3% | –
O=C(Nc1ccc2[nH]ncc2c1)c1ccccc1Cl | – | inconclusive: 18.5 µM [inhibitor, single point]
O=C(O)/C=C/C(=O)NNC(=O)c1cccc(Br)c1 | inactive: 19.7% | –
Cc1ccc(NC(=O)COC(=O)C2CC3C=CC2C3)cc1S(=O)(=O)N1CCCCC1 (stereo not given) | – | inconclusive: 2.62 µM [inhibitor, partial curve, poor fit]
CCc1c(C)nc(SCC(=O)N2C(C)CCCC2C)[nH]c1=O (stereo not given) | inactive: 14% | –
CCNC(=S)N(C)CCc1cc2c(c(OC)c1C=C1C(=O)N(C)C(=O)N(C)C1=O)OCO2 | – | inconclusive: 10.4 µM [inhibitor, single point]
CCCNC(=O)CCn1nc(-c2ccccc2)c2ccccc2c1=O | – | inconclusive: 11.7 µM [inhibitor, single point]
CCOC(=O)C1CCN(C(=O)CN(C)S(=O)(=O)c2cc(C)ccc2OC)CC1 | – | inconclusive: 18.5 µM [inhibitor, single point]
Cc1ccnc(NC(=O)c2ccoc2C)c1 | – | inconclusive: 18.5 µM [inhibitor, single point]
COc1ccc(N2CCN(C(=O)CN3CCN(c4nc(-c5ccc(F)cc5)cs4)CC3)CC2)cc1 | inactive: 22.3% | –
Cc1cccc(C)c1NC(=O)CNC(=O)C(NC(=O)c1ccc(C(C)(C)C)cc1)C(C)C (stereo not given) | – | inconclusive: 18.5 µM [inhibitor, single point]
COc1ccccc1C(=O)OCC(=O)Nc1cc(S(=O)(=O)N2CCOCC2)ccc1N1CCCC1 | inactive: 2.11% | –
COc1cccc(C(c2sc3ncnn3c2O)N2CCc3ccccc3C2)c1 (stereo not given) | – | inconclusive: 9.28 µM [inhibitor, partial curve]
CC(=O)Nc1cc(C(=O)N2CCCC2)ccc1S(=O)(=O)c1ccc(Cl)cc1 | inactive: -7.53% | –
N#Cc1c(N2C(=O)Nc3ccccc3N2O)sc2c1CCCC2 | inactive: 140% | –
CCOc1ccccc1C1CC(=O)NC(SCC(=O)Nc2nccs2)=C1C#N (stereo not given) | – | inconclusive: 18.5 µM [inhibitor, single point]
CCN1C(=O)c2cccc3c(S(=O)(=O)NCc4ccco4)ccc1c23 | – | inconclusive: 3.7 µM [inhibitor, single point]
CCOc1ccc2[nH]c3c(NCCN(CC)CC)ncnc3c2c1 | – | active: 2.08 µM

Of the compounds above, these have an aryl thioether with sulfur outside any ring.
Compound | activity change, negative = inhibition | Potency
CCn1c(=O)c2ccccc2n2c(SCC(=O)NCc3cccs3)nnc12 | – | inconclusive: 4.15 µM [inhibitor, single point]
CCc1c(C)nc(SCC(=O)N2C(C)CCCC2C)[nH]c1=O (stereo not given) | inactive: 14% | –
